Source: patent publication US20240369556A1
No constants are given. Whether binding was seen depends on the method and setting. Binding calls can cover weak binding; strength is not graded here.

Assays:
[1] = target: glycosylated envelope (E) protein of West Nile virus, strain VR-1510 (West Nile virus); assay: cross-react test on flavivirus-infected cells (grade, Table 2)
[2] = target: glycosylated envelope (E) protein of Yellow fever virus, strain 17D (Yellow fever virus); assay: as above
[3] = target: glycosylated envelope (E) protein of West Nile virus, strain VR-1510 (West Nile virus); assay: Western blot, lysate of West Nile virus-infected cells against mock cells

Measured: binding

B1: isolated monoclonal antibody of present disclosure (antibody, V domains shown)
VH: EVQLQQSGPELVKPGASVKISCKTSGYTFTEYTIHWVKQSHGKSLEYIGGINPNNGGTSYKQKFEGKATLTVDKSSSTAYMELRSLTSEDSAVYYCARRGLRPLFDYWGQGTTLTVSS
VL: DIVMTQSQKFMSTSVGDRVSVTCKASQNVGTNVAWYQQKPGQSPKVLIYSASSRYSGVPDRFTGSGSGTDFTLTISNVQSEDLAEYFCQQYNSYLTFGAGTKLELKR
binds: all assays above
